In one series the target is GST (UniProt P08515). Nature of the series: EMSA. The settings on record: purified recombinant protein; protein details: GST alone (pGEX-6P2); label: 32P-UTP.
The target in the next series is T1, SHARP RRM region (UniProt Q96T58).
T1 sequence (looked up): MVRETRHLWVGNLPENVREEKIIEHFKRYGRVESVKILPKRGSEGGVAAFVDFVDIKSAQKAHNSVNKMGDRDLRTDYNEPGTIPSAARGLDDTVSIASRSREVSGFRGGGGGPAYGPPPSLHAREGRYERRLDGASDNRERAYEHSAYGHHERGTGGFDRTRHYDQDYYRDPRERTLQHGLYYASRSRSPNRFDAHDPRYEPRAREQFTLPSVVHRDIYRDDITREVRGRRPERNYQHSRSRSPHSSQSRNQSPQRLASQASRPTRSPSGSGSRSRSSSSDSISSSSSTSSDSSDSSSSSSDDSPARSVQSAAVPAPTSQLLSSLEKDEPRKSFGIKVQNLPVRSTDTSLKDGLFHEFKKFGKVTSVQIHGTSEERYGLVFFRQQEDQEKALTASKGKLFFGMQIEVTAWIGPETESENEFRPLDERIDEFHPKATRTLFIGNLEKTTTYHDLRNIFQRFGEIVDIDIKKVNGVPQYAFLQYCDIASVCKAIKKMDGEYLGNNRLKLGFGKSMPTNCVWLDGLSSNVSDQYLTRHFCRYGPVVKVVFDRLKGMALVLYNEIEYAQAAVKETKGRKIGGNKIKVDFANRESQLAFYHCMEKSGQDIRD
Nature of the series: EMSA. The settings on record: bound avidly under stringent conditions; purified recombinant protein; protein details: GST fusion; label: 32P-UTP. (In general: Mobility shift assays separate free from complexed probe on a gel.)

A further series deals with T2, SHARP repression domain (UniProt Q96T58).
T2 sequence (looked up): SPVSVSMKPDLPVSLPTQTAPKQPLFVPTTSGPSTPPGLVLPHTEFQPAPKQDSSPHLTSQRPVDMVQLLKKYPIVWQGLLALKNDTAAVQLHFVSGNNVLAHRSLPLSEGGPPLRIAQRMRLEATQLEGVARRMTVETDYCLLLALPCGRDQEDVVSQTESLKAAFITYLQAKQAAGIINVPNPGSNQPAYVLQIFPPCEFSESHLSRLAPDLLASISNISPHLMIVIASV
Nature of the series: EMSA. The settings on record: purified recombinant protein; protein details: GST fusion; label: 32P-UTP.

Series [1] has as its target SLIRP (GST cleaved) (Homo sapiens) (UniProt Q9GZT3). Nature of the series: EMSA. The settings on record: heparin and RNase T1; data not shown; purified recombinant protein; protein details: GST removed with PreScission protease; label: 32P-UTP.
A further series has as its target SLIRP (Homo sapiens) (UniProt Q9GZT3). Nature of the series: EMSA. The conditions noted are these: purified recombinant protein; protein details: GST fusion (pGEX-6P2); label: 32P-UTP.
Series [2] concerns the target SLIRP L62A (Homo sapiens) (UniProt Q9GZT3). Nature of the series: EMSA. The settings on record: markedly reduced binding; purified recombinant protein; protein details: GST fusion; label: 32P-UTP.
The target of series [3] is SLIRP R24,25A R24A,R25A (Homo sapiens) (UniProt Q9GZT3). Nature of the series: EMSA. The conditions noted are these: markedly reduced binding; purified recombinant protein; protein details: GST fusion; label: 32P-UTP.
Series [4] deals with SLIRP double mutant R24A,R25A,L62A (Homo sapiens) (UniProt Q9GZT3). Nature of the series: EMSA. The conditions noted are these: markedly reduced binding; purified recombinant protein; protein details: GST fusion; label: 32P-UTP.
In series [5] the target is SLIRP (yeast three-hybrid clone) (Homo sapiens) (UniProt Q9GZT3). Nature of the series: binding assay. The conditions noted are these: yeast three-hybrid screen; STR7 in MS2 hybrid RNA bait; protein in cells; protein details: cDNA library fusion, lacks first methionine; label: 32P-UTP.

Construct, isoform or probe ends are uncertain for at least one entry. For part of these data: Negatives hold for the conditions tested. For part of these data: Tags and fusion partners may be left off the protein sequences shown. For part of these data: Weaker means in comparison with the reference protein, sequence or condition of that experiment. For part of these data: Results from cells or extracts need not show a direct contact.

Consider one sequence from patent publication US20090312245.

Consider “AGGAGGCAGGUAUGUGAUGACAUCAGCCGACGCCUGGCACUGCUGCAGGAACAGUGGGCUGGAGGAAAGUUGUCAAUACCUGUAAAGAA [SRA STR7]”, for which the binding result with GST is reported as “no binding”; with SHARP RRM region, “binds”; in the series with SHARP repression domain, “no binding”; in [1], “binds”; in the series with SLIRP (Homo sapiens), “binds”; in series [2] it was “binds more weakly”. Moreover, the binding result in [3] is “binds more weakly”; in [4], “binds more weakly”; in [5], “binds”.
